Source: patent US10214520B2, “Substituted azaspiro(4.5)decane derivatives” (priority 2014, dated 2019)
The match of structure and compound is tentative.

Chains of the proteins cited; added tags and fusions are not shown.
UniProt P35372, whole entry: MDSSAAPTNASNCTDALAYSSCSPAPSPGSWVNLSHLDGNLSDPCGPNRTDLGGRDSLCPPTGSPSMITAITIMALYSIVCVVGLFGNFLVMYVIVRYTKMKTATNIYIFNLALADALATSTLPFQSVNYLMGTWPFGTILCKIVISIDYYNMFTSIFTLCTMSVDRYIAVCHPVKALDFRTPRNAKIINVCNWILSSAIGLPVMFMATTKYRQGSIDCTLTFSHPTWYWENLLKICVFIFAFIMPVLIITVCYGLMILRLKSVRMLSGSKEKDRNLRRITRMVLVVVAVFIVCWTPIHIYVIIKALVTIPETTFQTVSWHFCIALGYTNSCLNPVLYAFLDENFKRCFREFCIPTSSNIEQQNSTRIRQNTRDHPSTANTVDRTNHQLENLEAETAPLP
UniProt P41146, whole entry: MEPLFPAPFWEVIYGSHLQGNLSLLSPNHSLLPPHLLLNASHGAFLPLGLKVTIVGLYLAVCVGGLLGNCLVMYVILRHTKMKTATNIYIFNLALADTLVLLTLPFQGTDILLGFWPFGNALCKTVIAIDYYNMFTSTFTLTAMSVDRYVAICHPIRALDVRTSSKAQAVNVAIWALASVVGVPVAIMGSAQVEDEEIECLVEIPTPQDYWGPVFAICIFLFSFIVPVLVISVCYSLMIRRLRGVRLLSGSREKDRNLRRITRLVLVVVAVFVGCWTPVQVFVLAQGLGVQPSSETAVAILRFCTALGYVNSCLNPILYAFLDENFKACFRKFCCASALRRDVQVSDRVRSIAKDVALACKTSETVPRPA

Tests used:
human μ opiate receptor = human μ opiate receptor (Homo sapiens, UniProt P35372); assay: μ opiate receptor binding assay with [3H]-naloxone, membrane preparation of CHO-K1 cells (WGA-SPA beads)
ORL1 receptor = ORL1 receptor (Homo sapiens, UniProt P41146); assay: ORL1 receptor binding assay with 3H-nociceptin/orphanin FQ, membranes from recombinant CHO-ORL1 cells (WGA-SPA beads)

Cc1ccc(CN2CC3(CCC(c4cccs4)(N(C)C)CC3)CC2=O)s1 (single isomer, unassigned)
Ki (human μ opiate receptor; read-out: Ki (μ) mean [μm], mean): 0.38 nM | % inhibition (μ) [1 μM] (human μ opiate receptor; test concentration 1 μM): 100.5% | Ki (ORL1 receptor; read-out: Ki (ORL1) mean [μm], mean): 1.9 nM | % inhibition (ORL1) [1 μM] (ORL1 receptor; test concentration 1 μM): 93.5%
